Data published in patent US20180264134A1 (priority 2015, published 2018).
For part of these data: Where a sequence shows no end group, the ends are not given.

Key:
HaCaT keratinocyte cells = assay: Internalization mechanism (endocytosis inhibitors / siRNA, flow cytometry); type: cell-based, human
Protocol: In an embodiment the HaCaT keratinocyte cells were cultured on 24 well plates (1×10^6 cells/well) and inhibited by one of the following chemicals during 30 min before adding a suspension of Rhodamine-labelled NPs (15 μg/mL): dynasor (100 μM), cytochalasin D (100 μM), nocodazole (25 uM), filipin III (1 μM) and polyinosinic acid (100 μg/mL), 5-(N-ethyl-N-isopropyl)amiloride (EIPA), dextran sulfate. The inhibitor concentrations were based in values reported in literature and further validated by us to have no cytotoxic effect over the period of the assay (6 h), as confirmed by viability assay. The incubation of the cells with NPs for different times was performed in the presence of the inhibitor. As controls, HaCaT keratinocyte cells without NPs and cells incubated with NPs without inhibitor were used. […] Cells were then evaluated as before.
In an embodiment the NP uptake mechanism was also studied on HaCaT keratinocyte cells by silencing specific proteins of clathrin-mediated endocytosis (CLTC and LDLR), caveolin-mediated endocytosis (CAV1), GEEC-CCLIC pathways (CDC42) and macropinocytosis (RAC1 and CTBP1) and scavenger receptor (SCARA3) by siRNA (Thermo Fisher). […] In all FACS analysis, a total of 10,000 events were recorded per run. […]

HaCaT = assay: Intracellular trafficking by confocal microscopy in HaCaT; type: cell-based, human; conditions: 30 min; for colocalization with EEA1 and RAB7: 4 h and 24 h
peptide made by a vendor = conditions: whole synthesis

Row | Compound | internalization at 4° C. (HaCaT keratinocyte cells; 4° C.) | internalization in cells inhibited with polyinosinic acid or dextran sulfate (HaCaT keratinocyte cells; scavenger receptor inhibition) | colocalization with EEA1 and RAB7 (HaCaT) | colocalization with EEA1 and RAB7 (HaCaT; listed as soluble LL37) | co-localization with P2X7 (HaCaT; immunocytochemistry) | final purity (method not given) (peptide made by a vendor) [%]
1 | CC[C@H](C)[C@H](NC(=O)[C@H](CCCCN)NC(=O)[C@H](CCC(=O)O)NC(=O)[C@H](CCCCN)NC(=O)[C@H](CO)NC(=O)[C@H](CCCCN)NC(=O)[C@H](CCCNC(=N)N)NC(=O)[C@H](Cc1ccccc1)NC(=O)[C@H](Cc1ccccc1)NC(=O)[C@H](CC(=O)O)NC(=O)CNC(=O)[C@H](CC(C)C)NC(=O)[C@@H](N)CC(C)C)C(=O)NCC(=O)N[C@@H](CCCCN)C(=O)N[C@@H](CCC(=O)O)C(=O)N[C@@H](Cc1ccccc1)C(=O)N[C@@H](CCCCN)C(=O)N[C@@H](CCCNC(=N)N)C(=O)N[C@H](C(=O)N[C@H](C(=O)N[C@@H](CCC(N)=O)C(=O)N[C@@H](CCCNC(=N)N)C(=O)N[C@H](C(=O)N[C@@H](CCCCN)C(=O)N[C@@H](CC(=O)O)C(=O)N[C@@H](Cc1ccccc1)C(=O)N[C@@H](CC(C)C)C(=O)N[C@@H](CCCNC(=N)N)C(=O)N[C@@H](CC(N)=O)C(=O)N[C@@H](CC(C)C)C(=O)N[C@H](C(=O)N1CCC[C@H]1C(=O)N[C@@H](CCCNC(=N)N)C(=O)N[C@H](C(=O)N[C@@H](CCC(=O)O)C(=O)N[C@@H](CO)C(=O)N[C@@H](CS)C(N)=O)[C@@H](C)O)C(C)C)[C@@H](C)CC)C(C)C)[C@@H](C)CC [LL37] | significant inhibition | no significant | did not colocalize | any significant colocalization | co-localization | 
2 | LLGDFFRKSKEKIGKEFKRIVQRIKDFLRNLVPRTESC |  |  |  |  |  | 96
